# Assay results from PubChem BioAssay AID2685 (National Center for Advancing Translational Sciences (NCATS), 2010).
# The list shows a part of the results. Further columns of the screen follow, without active or inactive calls. Most of these compounds were active or inconclusive in the main read-out, so they are no random draw. The note in brackets gives the kind of curve behind each potency; many fits are weak.
# Assay: qHTS Assay for Lipid Storage Modulators in Drosophila S3 Cells;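 on cell number change: cells counted by Cell Tracker Red CMTPX staining in the red channel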
# Conditions: BODIPY lipid droplet fluorescence, 18-24 h; for cell number change: measured here: cell count max response, cells fed with added oleic acid
# How it was run: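 Drosophila S3 cells got compounds at several concentrations plus oleic acid (400 uM solution). Laser-scanning cytometry with 488 nm excitation read lipid droplets at 500-530 nm and cells at 575-640 nm. Percent activity was relative to 20 uM Triacsin C.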
# [1] = measured here: cell number channel AC50, cells fed with added oleic acid
# [2] = measured here: lipid fluorescence (Fed channel) AC50, cells fed with added oleic acid
SMILES,cell number change,AC50 [1],AC50 [2]
Cc1cccc(NC(=O)CN(C)S(=O)(=O)c2ccc3c(c2)n(C)c(=O)c(=O)n3C)c1C,-39.5%,"14.6 µM [falling, partial curve, poor fit]",–
CC(=O)Nc1c2c(nn1-c1cccc(Cl)c1)CS(=O)C2 (configuration not stated),17.1%,"5.17 µM [falling, single point]","6.51 µM [falling, single point]"
CC1CCN(Cc2c(C(=O)N/N=C/c3ccccc3O)nnn2-c2nonc2N)CC1,22.5%,–,"29.1 µM [falling, single point]"
CCCCn1c(N)c(N(CCOC)C(=O)CSCc2ccccc2C)c(=O)[nH]c1=O,-11.9%,–,"2.59 µM [falling, partial curve, poor fit]"
Cc1ccc(S(=O)(=O)/N=c2\ccc(Cl)cn2C(F)F)cc1,-7.54%,"4.61 µM [falling, single point]","6.51 µM [falling, single point]"
CCc1ccc(-c2csc(NC(=O)COC(=O)CCc3nc4ccccc4s3)n2)cc1,-17%,–,"3.66 µM [rising, single point]"
CCCCc1ccc(NC(=S)N2CCN(C(=O)c3ccco3)CC2)cc1,-9.25%,–,"3.66 µM [rising, single point]"
COc1cccc(-n2c(CNc3ccc(F)cc3)nnc2SCC(N)=O)c1,-81.9%,"23.1 µM [falling, partial curve]","29.1 µM [falling, single point]"
COc1ccc(C2c3ccc(O)cc3Oc3ncn(Cc4ccco4)c(=N)c32)cc1 (configuration not stated),-7.61%,–,"25.9 µM [falling, single point]"
CCCCOc1ccc(/C=N/NC(=O)c2nnn(-c3nonc3N)c2C)cc1,45.9%,"29.1 µM [rising, single point]","29.1 µM [rising, single point]"
Clc1ccc(OCCn2ccnc2)c2ccccc12,-5.18%,"0.00411 µM [falling, full curve, poor fit]","1.3 µM [rising, full curve]"
COc1ccccc1NS(=O)(=O)c1ccc(C(=O)Nc2ncccc2O)cc1,-64.1%,"25.9 µM [falling, single point]","1.84 µM [falling, partial curve]"
CN(CC(=O)Nc1ccc(F)cc1)C(=O)COC(=O)/C=C/c1cccs1,47.1%,"14.6 µM [rising, partial curve]",–
COc1cccc(CNCCc2c[nH]c3ccccc23)c1OCc1ccc(F)cc1,-62%,"32.6 µM [falling, single point]",–
Cc1[nH]c2ccc(C(=O)OC(C)C(=O)NC3CCCCC3C)cc2c1C (configuration not stated),-36.8%,"29.1 µM [falling, single point]","18.4 µM [falling, single point]"
CCn1cc(C(=O)Nn2cnnc2)c(=O)c2ccc(C)nc21,125%,–,"6.51 µM [falling, single point]"
CC(NC(=O)COC(=O)c1ccc(N(C)C)cc1)c1ccccc1 (configuration not stated),-5.97%,–,"0.116 µM [rising, partial curve, poor fit]"
COC(=O)COc1ccc(/C=C2/SC(=O)N(CC(=O)N3CCCC3)C2=O)cc1Br,–,"2.91 µM [rising, single point]",–
COc1cccc(CN(C(=O)c2ccccc2)C2CCS(=O)(=O)C2)c1 (configuration not stated),-0.763%,–,–

# A portion of the results above:
SMILES,cell number change,AC50 [1],AC50 [2]
COc1cccc(-n2c(CNc3ccc(F)cc3)nnc2SCC(N)=O)c1,-81.9%,"23.1 µM [falling, partial curve]","29.1 µM [falling, single point]"
COc1ccc(C2c3ccc(O)cc3Oc3ncn(Cc4ccco4)c(=N)c32)cc1 (configuration not stated),-7.61%,–,"25.9 µM [falling, single point]"
CCCCOc1ccc(/C=N/NC(=O)c2nnn(-c3nonc3N)c2C)cc1,45.9%,"29.1 µM [rising, single point]","29.1 µM [rising, single point]"

# Continued:

SMILES,cell number change,AC50 [1],AC50 [2]
COc1ccc(N(CC(=O)N/N=C/c2ccco2)S(=O)(=O)c2ccccc2)cc1Cl,-27.6%,–,"29.1 µM [falling, single point]"
CCOC(=O)C1(C)NC(c2ccc(N(C)C)cc2)C2C(=O)N(c3ccc(OC)cc3)C(=O)C21 (configuration not stated),1.47%,–,"0.0058 µM [falling, full curve, poor fit]"
CC(=O)[C@@]1(O)C(C)CC2C3C=C(C)C4=Cc5c(cnn5-c5ccccc5)C[C@]4(C)C3C(O)C[C@@]21C (some centres not stated),252%,"29.1 µM [rising, single point]","16.4 µM [falling, partial curve]"
Cc1ccc(Nc2nc(N3CCOCC3)nc(N3CCOCC3)n2)cc1C,30.6%,"5.8 µM [rising, full curve, poor fit]",–
O=C(O)c1ccc(CNCc2ccccc2Cl)cc1,1.47%,–,"0.184 µM [falling, full curve, poor fit]"
Cc1cccc(-c2nc(CC(=O)Nc3cccc(S(=O)(=O)NC4=NCCC4)c3)cs2)c1,-1.81%,–,"1.64 µM [rising, partial curve]"
CC1Oc2ccccc2N(Cc2ccc(F)cc2)C1=O (configuration not stated),3.97%,–,"6.51 µM [rising, single point]"
O=C(CSc1ccc(Br)cc1)NCC1CCCO1 (configuration not stated),-24.5%,"0.58 µM [rising, single point]","29.1 µM [falling, partial curve]"
N#Cc1c(C(F)(F)F)cc(-c2ccccc2)nc1SCCN1CCOCC1,16.5%,–,"14.6 µM [rising, single point]"
CC(C)(C)OC(=O)N1CCC(c2c(C(=O)N3CCN(C(=O)c4ccco4)CC3)cnn2-c2ccc(F)cc2)CC1,-13.5%,–,"29.1 µM [falling, single point]"
CCn1c(SCC(=O)Nc2ccc(OC)c(S(=O)(=O)N3CCCCC3)c2)nnc1C1CC1,–,–,"0.206 µM [rising, partial curve, poor fit]"
COc1ccc(-c2noc(CSc3ccccc3)n2)cc1OC,-32.8%,"0.082 µM [falling, full curve, poor fit]","0.146 µM [falling, partial curve]"
CC[C@@]12C(=O)N(c3cccc(Br)c3)C(=O)N1[C@H](c1cccc(C)c1)[C@@H]1C(=O)N(Cc3ccccc3)C(=O)[C@@H]12,-33.4%,"10.3 µM [falling, single point]","29.1 µM [falling, single point]"
NS(=O)(=O)c1ccc(NC(=O)COC(=O)CCC2CCCCC2)cc1,20.1%,–,"13 µM [rising, partial curve]"
O=C(NCCc1ccccc1)C1CCN(C(=O)c2ccc(F)cc2)CC1,1.85%,–,–
NC(=O)CSc1ncnc2c1nnn2Cc1ccc(F)cc1,24%,–,–
Cc1occc1C(=O)O/N=C(\N)c1ccccc1,9.03%,–,"1.03 µM [rising, full curve]"
Oc1ccc(/C=N/N=C(c2ccccc2)c2ccccc2)c(O)c1O,-47%,"20.6 µM [falling, single point]","16.4 µM [falling, single point]"
CCN(CC)CCNC(=O)CCc1c(C)nc2c(c(C)nn2-c2ccc(C)cc2)c1C,9.22%,–,"0.651 µM [falling, partial curve, poor fit]"

SMILES,cell number change,AC50 [1],AC50 [2]
CCC(C)(C)C(=O)Nc1ccc(C(N)=O)cc1,-36.3%,"16.4 µM [falling, single point]","29.1 µM [falling, single point]"
OCC(C#CCN1CCCCC1)NCc1ccccc1 (configuration not stated),-12.2%,"0.259 µM [falling, partial curve]","29.1 µM [falling, partial curve]"
CCCN1C(=O)c2cc(C(=O)Nc3cccc(C(C)=O)c3)ccc2C1Nc1cccc(C(C)=O)c1 (configuration not stated),2.74%,–,"3.26 µM [rising, single point]"
Cc1cc(NC(=O)CCNS(=O)(=O)c2cc(Br)cnc2N)ccc1Br,-16.5%,"0.82 µM [rising, full curve, poor fit]",–
O=C(CCCNC(=O)c1ccc(Cl)cc1)Nc1ccc(Br)cc1,52.6%,"25.9 µM [rising, partial curve, poor fit]",–
CN(CCOc1ccccc1)C(=O)C1CCC(=O)N(CCc2ccc(Cl)cc2)C1 (configuration not stated),-3.47%,–,"0.164 µM [falling, full curve, poor fit]"
CCOc1cc(/C=N\Nc2nc(Nc3ccccc3)nc(N3CCOCC3)n2)ccc1OC(=O)c1ccco1,–,"0.00517 µM [rising, full curve, poor fit]",–
COc1ccc(-c2nc(CSCC(=O)N3CCc4ccccc43)c(C)o2)cc1OC,16.4%,–,"23.1 µM [rising, single point]"
CC(=O)C(/C=N/c1ncc(C(F)(F)F)cc1Cl)=C(\C)O,-25.9%,–,–
CC(NC(=O)c1ccc([N+](=O)[O-])cc1Cl)C1CC2CCC1C2 (configuration not stated),23.9%,–,"11.6 µM [falling, partial curve]"
Fc1ccc(COc2ccccc2CNc2nn[nH]n2)cc1,7.49%,–,–
CC(C)C(C(=O)Nc1ccc(S(N)(=O)=O)cc1)N1C(=O)c2ccccc2C1=O (configuration not stated),34.9%,–,–
Cc1cccc(NC(=S)NC(=O)c2oc3ccccc3c2C)n1,-3.17%,"0.146 µM [rising, full curve, poor fit]",–
O=C(NCc1ccc(Cl)cc1)C1CCN(S(=O)(=O)c2cccc3nonc23)CC1,224%,"29.1 µM [rising, single point]",–
O=c1cc(CSc2ccc(Cl)cc2)nc(-c2ccncc2)[nH]1,13.2%,–,"4.61 µM [rising, full curve, poor fit]"
CC(C)Nc1nc(Oc2ccc(Cl)cc2)cc(C(F)(F)F)n1,2.24%,–,"3.26 µM [rising, partial curve]"
CCN(CC)C(=S)SCC(=O)Nc1ncc2c(n1)CC(C)(C)CC2=O,9.81%,–,"1.3 µM [rising, partial curve, poor fit]"
CCc1c(O)cc2n(c1=O)-c1ccc(Cl)cc1C2(C)C,-20.2%,–,"29.1 µM [falling, single point]"
